Some of the results follow. The main result of the screen is listed elsewhere. These columns were measured beside it and carry no call. The list favours compounds with an active or inconclusive main result. Potencies come from curve fits of mixed quality, noted in brackets.
Assay: qHTS Assay for Lipid Storage Modulators in Drosophila S3 Cells;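 on cell number change: cells counted by Cell Tracker Red CMTPX staining in the red channel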
Details: BODIPY lipid droplet fluorescence, 18-24 h; for cell number change: measured here: cell count max response, cells fed with added oleic acid
Method in brief: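 Drosophila S3 cells loaded with oleic acid (400 uM, as added) and compounds at several concentrations; lipid droplets imaged by 488-nm laser-scanning cytometry, 500–530 nm intensity and object ratio to cell channel. Percent activity normalized to 20 uM Triacsin C.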

[1] = measured here: cell number channel AC50, cells fed with added oleic acid
[2] = measured here: lipid fluorescence (Fed channel) AC50, cells fed with added oleic acid

Structure (SMILES): O=C(CSC1=Nc2ccccc2C2=NC(Cc3c[nH]c4ccccc34)C(=O)N12)NC1CCCCC1 (configuration not stated)
- cell number change: 17.8%
- AC50 [1]: 0.103 µM [rising, full curve, poor fit]

Structure (SMILES): C/C(=N/NS(=O)(=O)c1ccc(C)cc1)c1ccc2c(c1)OCO2
- cell number change: 64.4%
- AC50 [1]: 5.17 µM [rising, partial curve]
- AC50 [2]: 29.1 µM [rising, single point]

Structure (SMILES): O=C(NCc1ccc2c(c1)OCO2)c1cccc(F)c1
- cell number change: -20.9%

Structure (SMILES): COc1ccc(CC(=O)N(C)CC(=O)Nc2ccccc2Cl)cc1S(=O)(=O)N1CCOCC1
- cell number change: 21.2%
- AC50 [2]: 2.06 µM [rising, single point]

Structure (SMILES): CC(=O)c1ccc(S(=O)(=O)N2CCN(C(=O)c3ccc(COc4ccccc4)o3)CC2)cc1
- cell number change: -24.3%

Structure (SMILES): CCOc1cnc(-c2c(-c3ccccc3Cl)noc2C)o1
- cell number change: -64.7%
- AC50 [1]: 20.6 µM [falling, single point]

Structure (SMILES): COc1ccc(OC)c(NC(=O)CSc2ccccc2)c1
- cell number change: 6.02%
- AC50 [2]: 3.66 µM [rising, full curve]

Structure (SMILES): CCC(=O)c1ccc2c(c1)OCCO2
- cell number change: 26.2%
- AC50 [1]: 0.517 µM [rising, partial curve, poor fit]
- AC50 [2]: 6.51 µM [rising, partial curve, poor fit]

Structure (SMILES): CCCn1c(N)c(C(=O)CSc2n[nH]c(-c3ccccc3F)n2)c(=O)n(C)c1=O
- cell number change: -42.6%
- AC50 [1]: 6.51 µM [falling, full curve]
- AC50 [2]: 29.1 µM [falling, single point]

Structure (SMILES): O=C(NC1CCc2ccccc21)c1cc(COc2c(F)cccc2F)on1 (configuration not stated)
- cell number change: 29.7%
- AC50 [1]: 1.84 µM [rising, full curve, poor fit]
- AC50 [2]: 2.59 µM [rising, full curve]

Structure (SMILES): CC(=O)Nc1ccc(NC(=O)CN(c2cccc(C)c2)S(C)(=O)=O)cc1
- cell number change: -60.8%
- AC50 [1]: 20.6 µM [falling, single point]
- AC50 [2]: 32.6 µM [rising, single point]

Structure (SMILES): Cc1ccc(C)c2[nH]c(=O)c(CN(Cc3ccco3)C(=O)Nc3ccccc3)cc12
- cell number change: 46.7%
- AC50 [1]: 0.58 µM [rising, full curve]
- AC50 [2]: 0.116 µM [rising, single point]

Structure (SMILES): CCOc1ccc(C(=O)C(C)OC(=O)Cn2[nH]c(=O)c3ccccc3c2=O)cc1 (configuration not stated)
- cell number change: -0.578%
- AC50 [2]: 29.1 µM [rising, single point]

Structure (SMILES): COc1ccc(NC(=O)C2CCCCN2S(=O)(=O)c2ccc(F)cc2)c(OC)c1 (configuration not stated)
- AC50 [1]: 0.58 µM [rising, single point]
- AC50 [2]: 13 µM [falling, partial curve]

Structure (SMILES): Cc1ccc(S(=O)(=O)N2CCOC23CCN(C(=O)c2ccc(Cl)cc2Cl)CC3)cc1
- cell number change: -0.763%

Structure (SMILES): COc1ccc(NS(=O)(=O)c2cc(NC(=O)c3nn(C)c(=O)c4ccccc34)ccc2OC)cc1
- cell number change: -26.1%
- AC50 [1]: 0.651 µM [rising, full curve]
- AC50 [2]: 5.8 µM [rising, single point]

Structure (SMILES): COc1ccccc1/C=C\C=N\NC(=O)c1ccco1
- AC50 [1]: 5.17 µM [rising, single point]

Structure (SMILES): Cc1[nH]c2ccccc2c1/C=C/C(=O)c1ccncc1
- cell number change: 8.32%
- AC50 [2]: 6.51 µM [falling, partial curve]

Structure (SMILES): O=C(COC(=O)COc1cccc(C(F)(F)F)c1)NC1CCS(=O)(=O)C1 (configuration not stated)
- cell number change: -29.5%
- AC50 [2]: 6.51 µM [falling, full curve]

Structure (SMILES): Cc1cc(C)c2nc(-c3ccccn3)cc(C(=O)NCCc3ccc(S(N)(=O)=O)cc3)c2c1
- cell number change: -27.2%
- AC50 [2]: 32.6 µM [falling, single point]

Structure (SMILES): COc1ccc(C(=O)NCC(=O)Nc2ccc(F)cc2)cc1OC
- cell number change: 3.53%
- AC50 [2]: 0.291 µM [rising, partial curve, poor fit]

Structure (SMILES): COc1cc(/C=N/NS(=O)(=O)c2ccc(C)c([N+](=O)[O-])c2)cc([N+](=O)[O-])c1O
- cell number change: -4.69%
- AC50 [2]: 29.1 µM [rising, single point]

Structure (SMILES): CCOc1ccc(C(=O)Nc2cccc(NC(=O)c3cccs3)c2)cc1[N+](=O)[O-]
- cell number change: 8.87%
- AC50 [1]: 0.731 µM [falling, single point]
- AC50 [2]: 1.03 µM [falling, single point]

Structure (SMILES): COc1ccc(OC)c(S(=O)(=O)N2CCC(C(=O)NCC3CCCO3)CC2)c1 (configuration not stated)
- cell number change: -113%
- AC50 [1]: 23.1 µM [falling, partial curve]
- AC50 [2]: 29.1 µM [falling, partial curve]

Structure (SMILES): CN(c1ccccc1)S(=O)(=O)c1ccc(Cl)c(C(=O)OCC(=O)NCc2ccco2)c1
- cell number change: -20.1%

Structure (SMILES): C=CCn1c(CCNC(=O)c2cccs2)nnc1SCC(=O)c1ccc(Br)cc1
- cell number change: 71.7%
- AC50 [1]: 14.6 µM [rising, partial curve]
- AC50 [2]: 6.51 µM [rising, single point]

Reference: PubChem BioAssay AID2685 (National Center for Advancing Translational Sciences (NCATS), 2010)
